No constants are given. Whether binding was seen depends on the method and setting. Some binding calls cover weakened binding; strength is not graded here. For some of these results: Sequences can lack the tags named with a protein.

Drawing on US20250213713A1, “Antibody-Drug Conjugates Targeting uPARAP Comprising Exatecan Derivatives” (ADCENDO APS, priority 2022, published 2025), this text covers binding for three molecules.

Experiment [1] deals with T1, soluble full-length uPARAP (UniProt Q9UBG0 31-1414, limits assumed).
T1 construct: also called CD280
T1 sequence (looked up): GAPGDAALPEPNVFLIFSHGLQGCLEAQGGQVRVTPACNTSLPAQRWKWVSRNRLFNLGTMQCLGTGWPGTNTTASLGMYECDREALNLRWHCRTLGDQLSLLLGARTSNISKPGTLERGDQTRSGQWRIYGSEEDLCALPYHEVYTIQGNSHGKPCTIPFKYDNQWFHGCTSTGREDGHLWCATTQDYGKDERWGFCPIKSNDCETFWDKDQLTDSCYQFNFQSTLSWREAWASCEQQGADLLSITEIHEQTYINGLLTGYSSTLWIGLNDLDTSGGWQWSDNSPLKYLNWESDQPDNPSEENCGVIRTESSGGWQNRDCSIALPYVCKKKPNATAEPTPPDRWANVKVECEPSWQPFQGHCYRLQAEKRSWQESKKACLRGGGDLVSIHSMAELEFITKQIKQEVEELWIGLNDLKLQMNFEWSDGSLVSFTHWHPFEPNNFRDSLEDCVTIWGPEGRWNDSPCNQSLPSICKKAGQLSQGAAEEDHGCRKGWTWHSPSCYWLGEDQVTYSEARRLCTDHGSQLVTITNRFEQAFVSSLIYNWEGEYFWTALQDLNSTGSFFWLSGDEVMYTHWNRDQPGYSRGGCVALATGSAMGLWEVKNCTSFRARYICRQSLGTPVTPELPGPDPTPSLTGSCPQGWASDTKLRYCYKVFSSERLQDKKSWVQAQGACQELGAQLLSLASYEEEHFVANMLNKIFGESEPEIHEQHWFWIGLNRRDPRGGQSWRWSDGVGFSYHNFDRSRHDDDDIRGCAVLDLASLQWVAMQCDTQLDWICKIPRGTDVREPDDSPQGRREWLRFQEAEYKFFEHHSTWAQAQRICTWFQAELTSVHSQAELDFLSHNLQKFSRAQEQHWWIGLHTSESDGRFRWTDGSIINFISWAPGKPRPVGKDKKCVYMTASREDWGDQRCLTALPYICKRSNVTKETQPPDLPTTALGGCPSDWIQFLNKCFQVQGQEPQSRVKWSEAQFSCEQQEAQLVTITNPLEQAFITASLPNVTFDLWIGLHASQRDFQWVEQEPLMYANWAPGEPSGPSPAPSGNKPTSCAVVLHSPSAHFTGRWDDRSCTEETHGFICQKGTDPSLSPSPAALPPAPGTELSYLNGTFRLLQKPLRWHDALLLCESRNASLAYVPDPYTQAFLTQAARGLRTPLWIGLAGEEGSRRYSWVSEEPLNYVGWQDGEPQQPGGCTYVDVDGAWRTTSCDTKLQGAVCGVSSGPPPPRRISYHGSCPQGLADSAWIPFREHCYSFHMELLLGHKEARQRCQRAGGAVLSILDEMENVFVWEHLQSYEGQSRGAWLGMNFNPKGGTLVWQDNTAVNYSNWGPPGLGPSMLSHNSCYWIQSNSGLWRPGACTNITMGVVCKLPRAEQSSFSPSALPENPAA
The experiment in a line: SPR, conclusion of Example 1. In general terms: SPR reads the build-up and loss of mass on a sensor chip optically.

Experiment [2] concerns the target T1, soluble full-length uPARAP. The experiment can be described thus: I-125-labelled antibody (5 µl, slightly less than 40 ng per well) on SAOS-2 osteosarcoma cells for 1 h or 4 h. The cell surface fraction is released with trypsin/proteinase K, the pellet is the internalized fraction, and both are read on a gamma counter. The target is taken as uPARAP on the cells. [left panel].

For experiment [3], the target named is T2, soluble recombinant protein consisting of the three N-terminal domains of uPARAP (CysR, FN-II and CTLD-1) (UniProt Q9UBG0).
T2 sequence (looked up): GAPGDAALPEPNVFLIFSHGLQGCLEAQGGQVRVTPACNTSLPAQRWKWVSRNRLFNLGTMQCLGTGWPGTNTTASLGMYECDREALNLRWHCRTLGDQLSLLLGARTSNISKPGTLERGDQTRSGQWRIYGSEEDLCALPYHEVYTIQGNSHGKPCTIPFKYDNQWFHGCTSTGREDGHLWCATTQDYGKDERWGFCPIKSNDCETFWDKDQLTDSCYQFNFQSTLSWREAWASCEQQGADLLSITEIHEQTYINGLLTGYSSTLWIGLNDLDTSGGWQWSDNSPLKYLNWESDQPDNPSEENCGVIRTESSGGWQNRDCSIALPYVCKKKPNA
The experiment can be described thus: BIAcore, truncated uPARAP construct (CysR, FN-II, CTLD-1) immobilized.

B1: 980.2 LC4HC3 (humanized 9b7 antibody) (antibody, human IgG1, kappa, V domains shown)
VH: QVQLVQSGAEVKKPGASVKVSCKASGYIFIDYGMHWVRQAPGQRLEWMGSINTKSGVSTYAAEFKGRVTIYSDTSASTAYMELSSLRSEDTAVYFCARPPYYSQYGSYWGQGTLVTVSS
VL: EIVMTQSPDSLAVSLGERATINCKASQNVDTYVVWYQQKPGQPPQPLIYSASSRFSGVPDRFSGSGSGTDFTLTISSLQAEDVAIYYCQQYHNSPLTFGGGTKVEIKR
notes: Complete IgG1 kappa, expressed in CHO cells; captured by anti-human Fc in the SPR assay
For the molecule B1, the binding result in experiment [1] and in experiment [2] was “binds” in each case.

B2: 980.2 LC0HC0 (chimeric antibody: variable domains of murine 9b7 fused to human IgG1 kappa constant regions) (antibody, V domains shown)
VH: QVHLVQSGPELKKPGETVKISCKASGYIFIDYGMHWVKQAPGKGLKWMGSINTKSGVSTYAAEFKGRFAFSLETSASTAYLQINNLKNEDTATYFCARPPYYSQYGSYWGQGTLVTVSA
VL: DIVMTQSQKFMSTSVGDRVSVTCKASQNVDTYVVWYQQKPGQSPKPLIYSASSRFSGVPDRFTGTGSGTDFTLTINNVQSEDLAEYFCQQYHNSPLTFGGGTKLEIKR
notes: Complete IgG1 kappa, expressed in CHO cells; captured by anti-human Fc in the SPR assay; also called parental antibody
B2: the binding result in experiment [1] is “binds”.

B3: murine monoclonal antibody 9b7 (antibody, V domains shown)
VH: B2 VH
VL: DIVMTQSQKFMSTSVGDRVSVTCKASQNVDTYVVWYQQKPGQSPKPLIYSASSRFSGVPDRFTGTGSGTDFTLTINNVQSEDLAEYFCQQYHNSPLTFGGGTKLEIK
On to B3, for which the binding result in experiment [3] is “binds”.
